Source: the supplement of paper PMC4604168 (melanoma cell lines)
The list shows a part of the results. Repeats are few or missing, and single values can be far off.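 The apoptosis fraction was the count of cleaved-PARP antibody-stained nuclei relative to all DNA-stained nuclei, imaged in 1,536-well plates. Screening doses were set so most cells survived, and baseline and induced cleaved-PARP levels vary greatly across cell lines.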

What was measured:
Experiment in all cases: cleaved PARP positive nuclei fraction relative to DMSO control; melanoma cells; higher = more apoptosis
Settings in all cases: library dose: low library concentration; 72 h
[1] = tested on: COLO792
[2] = tested on: COLO800
[3] = tested on: COLO829
[4] = tested on: G361
[5] = tested on: IPC-298
[6] = tested on: IST-MEL1
[7] = tested on: LOXIMVI
[8] = tested on: MEL-HO
[9] = tested on: LB2518-MEL

SMILES | cleaved PARP positive nuclei fraction [1] | cleaved PARP positive nuclei fraction [2] | cleaved PARP positive nuclei fraction [3] | cleaved PARP positive nuclei fraction [4] | cleaved PARP positive nuclei fraction [5] | cleaved PARP positive nuclei fraction [6] | cleaved PARP positive nuclei fraction [7] | cleaved PARP positive nuclei fraction [8] | cleaved PARP positive nuclei fraction [9]
Cn1cc(C2=C(c3cn(C4CCN(Cc5ccccn5)CC4)c4ccccc34)C(=O)NC2=O)c2ccccc21 [Enzastaurin] + CC(C)(C)c1cnc(CSc2cnc(NC(=O)C3CCNCC3)s2)o1 [SNS-032] (first compound 0.8 µM, partner dose 0.01 µM) | 198% | 111% | 26.6% | 170% | 90.4% | 201% | 104% | 61.1% | –
C[C@]12O[C@H](C[C@]1(O)CO)n1c3ccccc3c3c4c(c5c6ccccc6n2c5c31)CNC4=O [Lestaurtinib] + Cc1ccc(NC(=O)c2cccc(N(C)C)c2)cc1NC(=O)c1ccc(O)cc1 [ZM336372] (first compound 0.004 µM, partner dose 2 µM) | 83.7% | 173% | 156% | 84.4% | 159% | 107% | 83.9% | 138% | 50.9%
CN1CCN(c2ccc3nc(-c4c(N)c5c(F)cccc5[nH]c4=O)[nH]c3c2)CC1 [Dovitinib] + Cc1cc(SCc2sc(-c3ccc(C(F)(F)F)c(F)c3)nc2C)ccc1OCC(=O)O [GW0742] (first compound 0.1 µM, partner dose 2 µM) | 32% | 248% | 145% | 86.3% | 93.1% | 107% | 146% | – | –
N.N.[Cl][Pt][Cl] [cisplatin] + O=C(Oc1ccc([N+](=O)[O-])cc1)N1CCC(C(O)(c2ccc3c(c2)OCO3)c2ccc3c(c2)OCO3)CC1 [JZL184] (first compound 1.6 µM, partner dose 1 µM) | 111% | 41.2% | 49.2% | 163% | 129% | 89.3% | 79.4% | – | –
O=C(O)c1ccc2c(c1)nc(Nc1cccc(Cl)c1)c1ccncc12 + C/C(O)=C(\C#N)C(=O)Nc1cc(Br)ccc1Br [LFM-A13] (first compound 0.4 µM, partner dose 2 µM) | 198% | 75.5% | 206% | 82.8% | 98% | 66% | 46.1% | – | –
C[C@]12O[C@H](C[C@]1(O)CO)n1c3ccccc3c3c4c(c5c6ccccc6n2c5c31)CNC4=O [Lestaurtinib] + OCCn1cc(-c2cnc3nnn(Cc4ccc5ncccc5c4)c3n2)cn1 [PF04217903] (first compound 0.004 µM, partner dose 1 µM) | 105% | 107% | 145% | 73.5% | 45.3% | 45.4% | 98.5% | 257% | –
N.N.[Cl][Pt][Cl] [cisplatin] + C=CCn1c(=O)c2cnc(Nc3ccc(N4CCN(C)CC4)cc3)nc2n1-c1cccc(C(C)(C)O)n1 [MK1775] (first compound 1.6 µM, partner dose 0.02 µM) | 130% | 160% | 151% | 131% | 91.6% | 77.7% | 58.6% | 150% | –
CO[C@H]1C[C@@H]2CC[C@@H](C)[C@@](O)(O2)C(=O)C(=O)N2CCCC[C@H]2C(=O)O[C@H]([C@H](C)C[C@@H]2CC[C@@H](OCCO)[C@H](OC)C2)CC(=O)[C@H](C)/C=C(\C)[C@@H](O)[C@@H](OC)C(=O)[C@H](C)C[C@H](C)/C=C/C=C/C=C/1C [everolimus] + O=C(Oc1ccc([N+](=O)[O-])cc1)N1CCC(C(O)(c2ccc3c(c2)OCO3)c2ccc3c(c2)OCO3)CC1 [JZL184] (first compound 0.02 µM, partner dose 1 µM) | 183% | 52% | 296% | 84.9% | 63.7% | 129% | 89.8% | – | –
N.N.[Cl][Pt][Cl] [cisplatin] + CCN(CC)CCCCNc1ncc2cc(-c3cc(OC)cc(OC)c3)c(NC(=O)NC(C)(C)C)nc2n1 [PD173074] (first compound 1.6 µM, partner dose 0.1 µM) | 99.2% | 67.3% | 47.9% | 116% | 46.3% | 17.9% | 52.1% | – | –
C[As](C)SC[C@H](NC(=O)CC[C@H](N)C(=O)O)C(=O)NCC(=O)O [Darinaparsin] + CC1(C)NC(=O)N(c2ccc([N+](=O)[O-])c(C(F)(F)F)c2)C1=O [nilutamide] (first compound 0.4 µM, partner dose 1 µM) | 44.4% | 158% | 187% | 175% | 21.8% | 151% | 129% | 50.2% | 101%
C[C@]12O[C@H](C[C@]1(O)CO)n1c3ccccc3c3c4c(c5c6ccccc6n2c5c31)CNC4=O [Lestaurtinib] + C[C@@H]1CCN(C(=O)CC#N)C[C@@H]1N(C)c1ncnc2[nH]ccc12 [CP690550] (first compound 0.004 µM, partner dose 1 µM) | 61.1% | 74.4% | 126% | 75% | 97.1% | 191% | 76.4% | 149% | 191%
N.N.[Cl][Pt][Cl] [cisplatin] + COc1cc2c(Oc3ccc4[nH]c(C)cc4c3F)ncnc2cc1OCCCN1CCCC1 [cediranib] (first compound 1.6 µM, partner dose 0.4 µM) | 156% | 70.6% | 81.9% | 79.3% | 86% | 34% | 62.7% | 59.8% | 82.6%
C[As](C)SC[C@H](NC(=O)CC[C@H](N)C(=O)O)C(=O)NCC(=O)O [Darinaparsin] + O=C(CCCCCCC(=O)Nc1ccccc1)NO [vorinostat] (first compound 0.4 µM, partner dose 0.08 µM) | 101% | 142% | 98.2% | 67.1% | 84.4% | 83.6% | 109% | 66.4% | 183%
Cn1cc(C2=C(c3cn(C4CCN(Cc5ccccn5)CC4)c4ccccc34)C(=O)NC2=O)c2ccccc21 [Enzastaurin] + CN(C)S(=O)(=O)c1ccc2c(c1)/C(=C/c1cc3c([nH]1)CCCC3)C(=O)N2 [SU6656] (first compound 0.8 µM, partner dose 0.4 µM) | 97.7% | 163% | 83.5% | 153% | 174% | 102% | 25% | 66.7% | 52.2%
N.N.[Cl][Pt][Cl] [cisplatin] + Cc1cc(N2CCOCC2)cc2[nH]c(-c3c(NC[C@@H](O)c4cccc(Cl)c4)cc[nH]c3=O)nc12 [BMS536924] (first compound 1.6 µM, partner dose 0.2 µM) | 74.2% | 130% | 80.4% | 143% | 101% | 101% | 390% | 68.8% | 201%
CC(C)C[C@H](NC(=O)[C@H](Cc1ccccc1)NC(=O)c1cnccn1)B(O)O [Bortezomib] + Cc1cc(SCc2sc(-c3ccc(C(F)(F)F)c(F)c3)nc2C)ccc1OCC(=O)O [GW0742] (first compound 0.001 µM, partner dose 2 µM) | 142% | 34.4% | 270% | 1960% | 54.1% | 260% | 77.5% | – | –
C[As](C)SC[C@H](NC(=O)CC[C@H](N)C(=O)O)C(=O)NCC(=O)O [Darinaparsin] + NC(=O)Nc1cc(-c2cccc(F)c2)sc1C(=O)N[C@H]1CCCNC1 [AZD7762] (first compound 0.4 µM, partner dose 0.02 µM) | 127% | 85% | 106% | 55.3% | 88.6% | 94.8% | 39.5% | 27.5% | 62.6%
C[As](C)SC[C@H](NC(=O)CC[C@H](N)C(=O)O)C(=O)NCC(=O)O [Darinaparsin] + COc1cc2c(Oc3ccc4[nH]c(C)cc4c3F)ncnc2cc1OCCCN1CCCC1 [cediranib] (first compound 0.4 µM, partner dose 0.4 µM) | 107% | 58.6% | 42.5% | 116% | 162% | 80.3% | 106% | 124% | 89%
Cn1cc(C2=C(c3cn(C4CCN(Cc5ccccn5)CC4)c4ccccc34)C(=O)NC2=O)c2ccccc21 [Enzastaurin] + Cc1cc([N+](=O)[O-])ccc1NS(=O)(=O)c1cc(Cl)ccc1Cl [FH535] (first compound 0.8 µM, partner dose 1 µM) | 115% | 94.2% | 61.4% | 102% | 278% | 86.3% | 95.8% | – | –
N.N.[Cl][Pt][Cl] [cisplatin] + NC(=O)Nc1cc(-c2cccc(F)c2)sc1C(=O)N[C@H]1CCCNC1 [AZD7762] (first compound 1.6 µM, partner dose 0.02 µM) | 122% | 174% | 67.3% | 153% | 183% | 99.5% | 76.5% | 107% | 71.6%
Cn1cc(C2=C(c3cn(C4CCN(Cc5ccccn5)CC4)c4ccccc34)C(=O)NC2=O)c2ccccc21 [Enzastaurin] + O=C(O)c1ccc(-c2c[nH]c3ncc(-c4ccccc4)cc23)cc1C1CCCC1 [GSK650394] (first compound 0.8 µM, partner dose 0.16 µM) | 131% | 82.8% | 97.5% | 86.4% | 22.3% | 203% | 493% | 147% | 44%

Nothing new here: entries from further up.
SMILES | cleaved PARP positive nuclei fraction [1] | cleaved PARP positive nuclei fraction [2] | cleaved PARP positive nuclei fraction [3] | cleaved PARP positive nuclei fraction [4] | cleaved PARP positive nuclei fraction [5] | cleaved PARP positive nuclei fraction [6] | cleaved PARP positive nuclei fraction [7] | cleaved PARP positive nuclei fraction [8] | cleaved PARP positive nuclei fraction [9]
N.N.[Cl][Pt][Cl] [cisplatin] + Cc1cc(N2CCOCC2)cc2[nH]c(-c3c(NC[C@@H](O)c4cccc(Cl)c4)cc[nH]c3=O)nc12 [BMS536924] (first compound 1.6 µM, partner dose 0.2 µM) | 74.2% | 130% | 80.4% | 143% | 101% | 101% | 390% | 68.8% | 201%
CC(C)C[C@H](NC(=O)[C@H](Cc1ccccc1)NC(=O)c1cnccn1)B(O)O [Bortezomib] + Cc1cc(SCc2sc(-c3ccc(C(F)(F)F)c(F)c3)nc2C)ccc1OCC(=O)O [GW0742] (first compound 0.001 µM, partner dose 2 µM) | 142% | 34.4% | 270% | 1960% | 54.1% | 260% | 77.5% | – | –
